Paper PMC4876133
No constants are given. Whether binding was seen depends on the method and setting. In cells and extracts the contact can be indirect. Some binding calls cover weakened binding; strength is not graded here.

Amino acid sequences for entries named in this document (tags omitted). A change or cut given only in a name is not applied to a line headed by its entry.
UniProt Q5S007: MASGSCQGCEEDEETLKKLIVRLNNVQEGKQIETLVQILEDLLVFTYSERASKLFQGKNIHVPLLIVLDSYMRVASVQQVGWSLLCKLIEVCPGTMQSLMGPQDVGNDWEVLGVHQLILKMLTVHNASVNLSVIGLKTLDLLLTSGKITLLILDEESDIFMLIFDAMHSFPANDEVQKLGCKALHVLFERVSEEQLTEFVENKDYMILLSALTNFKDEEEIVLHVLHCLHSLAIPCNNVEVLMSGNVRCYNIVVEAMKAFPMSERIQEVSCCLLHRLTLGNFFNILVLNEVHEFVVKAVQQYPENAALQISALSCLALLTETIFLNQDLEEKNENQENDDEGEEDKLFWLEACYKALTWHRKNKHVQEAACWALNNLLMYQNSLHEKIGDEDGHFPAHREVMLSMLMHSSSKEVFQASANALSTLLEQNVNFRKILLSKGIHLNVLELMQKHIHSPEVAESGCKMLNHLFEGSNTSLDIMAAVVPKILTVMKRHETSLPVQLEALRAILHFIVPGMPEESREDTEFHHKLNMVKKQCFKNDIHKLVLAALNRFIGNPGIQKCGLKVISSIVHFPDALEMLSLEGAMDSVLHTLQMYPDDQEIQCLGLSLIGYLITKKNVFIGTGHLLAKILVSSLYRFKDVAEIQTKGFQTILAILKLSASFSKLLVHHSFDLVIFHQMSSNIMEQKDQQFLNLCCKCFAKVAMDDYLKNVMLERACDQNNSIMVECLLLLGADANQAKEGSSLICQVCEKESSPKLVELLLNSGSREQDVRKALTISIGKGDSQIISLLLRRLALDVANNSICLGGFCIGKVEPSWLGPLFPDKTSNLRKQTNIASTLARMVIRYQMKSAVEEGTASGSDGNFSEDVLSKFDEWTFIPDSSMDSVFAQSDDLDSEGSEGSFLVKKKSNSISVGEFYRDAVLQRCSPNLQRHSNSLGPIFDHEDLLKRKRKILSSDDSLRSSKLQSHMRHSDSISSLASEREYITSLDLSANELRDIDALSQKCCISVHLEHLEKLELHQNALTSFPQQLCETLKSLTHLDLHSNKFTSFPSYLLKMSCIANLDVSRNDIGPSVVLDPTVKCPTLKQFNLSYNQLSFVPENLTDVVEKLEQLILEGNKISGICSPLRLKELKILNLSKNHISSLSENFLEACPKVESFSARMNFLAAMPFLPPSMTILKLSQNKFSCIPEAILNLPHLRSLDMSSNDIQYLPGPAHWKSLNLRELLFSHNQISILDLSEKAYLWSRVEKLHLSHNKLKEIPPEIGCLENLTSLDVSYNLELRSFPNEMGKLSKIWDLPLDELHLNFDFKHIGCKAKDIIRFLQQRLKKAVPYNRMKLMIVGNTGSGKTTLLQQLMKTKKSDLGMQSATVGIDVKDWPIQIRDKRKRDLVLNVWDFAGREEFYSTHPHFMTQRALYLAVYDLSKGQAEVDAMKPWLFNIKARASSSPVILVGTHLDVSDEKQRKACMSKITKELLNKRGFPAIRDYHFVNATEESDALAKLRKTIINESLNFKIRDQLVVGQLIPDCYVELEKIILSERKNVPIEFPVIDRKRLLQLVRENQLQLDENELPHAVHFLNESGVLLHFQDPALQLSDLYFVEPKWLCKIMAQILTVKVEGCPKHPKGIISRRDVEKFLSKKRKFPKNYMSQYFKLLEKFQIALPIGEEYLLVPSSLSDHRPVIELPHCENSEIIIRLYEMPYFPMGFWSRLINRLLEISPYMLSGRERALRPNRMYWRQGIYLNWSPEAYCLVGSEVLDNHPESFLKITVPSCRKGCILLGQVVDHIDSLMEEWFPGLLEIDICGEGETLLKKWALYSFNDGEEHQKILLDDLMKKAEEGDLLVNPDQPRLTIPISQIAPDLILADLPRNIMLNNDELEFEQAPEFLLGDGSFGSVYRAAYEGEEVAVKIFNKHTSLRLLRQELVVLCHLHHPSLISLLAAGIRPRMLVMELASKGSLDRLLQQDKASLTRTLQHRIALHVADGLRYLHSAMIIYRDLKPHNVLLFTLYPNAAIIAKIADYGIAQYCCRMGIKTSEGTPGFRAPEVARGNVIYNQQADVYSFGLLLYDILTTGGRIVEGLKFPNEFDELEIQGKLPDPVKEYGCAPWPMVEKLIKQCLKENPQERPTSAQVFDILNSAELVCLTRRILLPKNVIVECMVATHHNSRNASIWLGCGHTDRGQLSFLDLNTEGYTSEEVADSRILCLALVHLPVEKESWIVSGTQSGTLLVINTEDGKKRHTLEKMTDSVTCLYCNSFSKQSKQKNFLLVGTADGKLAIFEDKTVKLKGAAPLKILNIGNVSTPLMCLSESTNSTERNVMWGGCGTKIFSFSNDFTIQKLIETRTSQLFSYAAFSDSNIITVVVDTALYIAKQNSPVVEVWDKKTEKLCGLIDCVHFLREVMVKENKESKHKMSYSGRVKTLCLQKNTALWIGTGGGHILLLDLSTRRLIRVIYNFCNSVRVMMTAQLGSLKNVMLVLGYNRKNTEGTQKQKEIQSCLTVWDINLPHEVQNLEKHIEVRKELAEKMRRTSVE
UniProt P97445: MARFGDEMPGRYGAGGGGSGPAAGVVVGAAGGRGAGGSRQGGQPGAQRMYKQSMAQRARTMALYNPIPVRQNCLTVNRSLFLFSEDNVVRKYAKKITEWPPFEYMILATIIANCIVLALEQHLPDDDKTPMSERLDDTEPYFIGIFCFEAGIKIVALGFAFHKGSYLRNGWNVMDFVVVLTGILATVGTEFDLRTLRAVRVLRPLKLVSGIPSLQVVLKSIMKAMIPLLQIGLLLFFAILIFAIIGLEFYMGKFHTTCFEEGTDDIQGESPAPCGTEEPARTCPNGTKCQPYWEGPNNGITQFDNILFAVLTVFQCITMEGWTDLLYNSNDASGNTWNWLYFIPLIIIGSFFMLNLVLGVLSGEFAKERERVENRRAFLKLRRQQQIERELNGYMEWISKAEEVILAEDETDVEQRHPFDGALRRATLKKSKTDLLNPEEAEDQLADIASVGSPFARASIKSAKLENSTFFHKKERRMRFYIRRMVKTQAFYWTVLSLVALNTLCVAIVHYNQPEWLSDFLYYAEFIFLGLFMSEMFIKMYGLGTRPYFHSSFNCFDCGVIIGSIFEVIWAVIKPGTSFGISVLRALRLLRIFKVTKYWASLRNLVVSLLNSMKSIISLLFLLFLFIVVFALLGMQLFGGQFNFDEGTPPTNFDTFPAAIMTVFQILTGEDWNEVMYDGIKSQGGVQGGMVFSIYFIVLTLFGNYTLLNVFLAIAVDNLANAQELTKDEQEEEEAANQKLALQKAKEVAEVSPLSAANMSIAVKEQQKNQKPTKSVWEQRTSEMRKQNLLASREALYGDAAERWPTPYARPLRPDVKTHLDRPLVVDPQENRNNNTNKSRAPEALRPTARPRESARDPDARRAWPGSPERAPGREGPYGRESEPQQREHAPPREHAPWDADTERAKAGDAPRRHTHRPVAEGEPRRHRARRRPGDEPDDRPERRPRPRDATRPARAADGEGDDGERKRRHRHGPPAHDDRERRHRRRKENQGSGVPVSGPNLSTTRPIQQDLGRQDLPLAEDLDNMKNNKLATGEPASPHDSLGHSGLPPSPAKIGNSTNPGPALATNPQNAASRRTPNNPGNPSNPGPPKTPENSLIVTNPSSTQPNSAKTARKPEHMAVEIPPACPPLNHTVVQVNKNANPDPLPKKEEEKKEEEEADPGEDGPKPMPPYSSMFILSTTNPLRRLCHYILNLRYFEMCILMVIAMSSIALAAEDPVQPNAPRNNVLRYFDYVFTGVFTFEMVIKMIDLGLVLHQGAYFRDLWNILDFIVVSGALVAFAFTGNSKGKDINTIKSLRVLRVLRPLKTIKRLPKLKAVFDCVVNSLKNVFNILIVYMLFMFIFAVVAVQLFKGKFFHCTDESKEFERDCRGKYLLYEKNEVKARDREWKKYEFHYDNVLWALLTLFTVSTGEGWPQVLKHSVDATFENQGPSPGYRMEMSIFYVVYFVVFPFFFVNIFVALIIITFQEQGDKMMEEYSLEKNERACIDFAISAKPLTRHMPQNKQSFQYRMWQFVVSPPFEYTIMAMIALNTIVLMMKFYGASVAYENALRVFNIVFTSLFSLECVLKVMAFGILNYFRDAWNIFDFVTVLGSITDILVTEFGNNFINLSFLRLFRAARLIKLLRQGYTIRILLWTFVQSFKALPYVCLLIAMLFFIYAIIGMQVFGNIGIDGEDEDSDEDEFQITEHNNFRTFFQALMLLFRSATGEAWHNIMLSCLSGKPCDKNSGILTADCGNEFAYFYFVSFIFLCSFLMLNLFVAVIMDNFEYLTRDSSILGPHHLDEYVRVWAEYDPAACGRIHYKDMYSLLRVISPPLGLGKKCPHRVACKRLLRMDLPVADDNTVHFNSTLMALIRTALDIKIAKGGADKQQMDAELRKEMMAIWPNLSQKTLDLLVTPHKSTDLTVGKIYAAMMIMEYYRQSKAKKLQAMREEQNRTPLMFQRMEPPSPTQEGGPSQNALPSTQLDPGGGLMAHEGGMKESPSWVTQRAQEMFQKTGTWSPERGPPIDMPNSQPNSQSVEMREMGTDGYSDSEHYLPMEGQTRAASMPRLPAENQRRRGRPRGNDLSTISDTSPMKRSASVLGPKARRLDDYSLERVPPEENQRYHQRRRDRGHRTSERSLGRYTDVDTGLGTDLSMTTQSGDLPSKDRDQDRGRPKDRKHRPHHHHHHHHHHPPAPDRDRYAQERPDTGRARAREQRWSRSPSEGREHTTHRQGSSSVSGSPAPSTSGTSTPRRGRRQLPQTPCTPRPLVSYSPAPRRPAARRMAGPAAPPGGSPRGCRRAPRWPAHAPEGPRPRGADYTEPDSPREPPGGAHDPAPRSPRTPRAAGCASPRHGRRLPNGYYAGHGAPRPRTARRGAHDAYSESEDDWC
UniProt P54285: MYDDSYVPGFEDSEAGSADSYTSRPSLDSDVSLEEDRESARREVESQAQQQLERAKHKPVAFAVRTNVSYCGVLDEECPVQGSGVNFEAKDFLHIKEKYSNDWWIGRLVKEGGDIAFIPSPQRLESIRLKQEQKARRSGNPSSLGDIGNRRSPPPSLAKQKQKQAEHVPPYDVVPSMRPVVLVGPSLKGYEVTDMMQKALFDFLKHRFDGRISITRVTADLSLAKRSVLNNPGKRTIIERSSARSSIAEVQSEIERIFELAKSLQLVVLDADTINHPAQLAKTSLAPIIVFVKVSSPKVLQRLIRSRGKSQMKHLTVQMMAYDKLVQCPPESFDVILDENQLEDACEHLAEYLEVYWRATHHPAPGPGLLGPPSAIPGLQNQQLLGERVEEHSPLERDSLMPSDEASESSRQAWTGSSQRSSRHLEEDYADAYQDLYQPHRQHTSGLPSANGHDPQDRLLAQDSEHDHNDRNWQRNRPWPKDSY

Key:
[1] = molecular target: G2019S LRRK2 from BAC hG2019S LRRK2 mice (human) (UniProt Q5S007); assay: co-IP; adult mouse forebrain (littermate wt or heterozygous BAC hG2019S) cross-linked with 0.8% formaldehyde for 2 h, lysed in 150 mM NaCl, 2 mM EDTA, 50 mM Tris-HCl, 1% NP-40, 0.25% sodium deoxycholate, pH 7.4; 1 mg protein with 3 ug rat anti-LRRK2 (clone 24D8) or rat IgG, protein G-Sepharose; western blot
[2] = molecular target: leucine rich repeat kinase 2 (LRRK2), endogenous, wild-type mouse forebrain (mouse (endogenous in forebrain)) (UniProt Q5S006); assay: as above

| binding [1] | binding [2] | Substance |
| --- | --- | --- |
| no binding | no binding | CaV2.1 α1A subunit (from UniProt P97445 1-2368) |
| binds | binds | CaV channel β3 subunit (from UniProt P54285 1-484) |
